According to publication PMC12266115:

Columns and labels:
Assay in all cases: two-hybrid; S. cerevisiae AH109, pDEST-GBKT7 (BD) and pDEST-GADT7 (AD) fusions; growth on SD-LWH with 5 mM 3-amino-1,2,4-triazole and on SD-LWHA, 28°C, 5 days
[1] = molecular target: T1, EDS1^405-554, fragment of the EP domain, Gal4 BD fusion (A. thaliana) (UniProt Q9SU72)
T1 sequence: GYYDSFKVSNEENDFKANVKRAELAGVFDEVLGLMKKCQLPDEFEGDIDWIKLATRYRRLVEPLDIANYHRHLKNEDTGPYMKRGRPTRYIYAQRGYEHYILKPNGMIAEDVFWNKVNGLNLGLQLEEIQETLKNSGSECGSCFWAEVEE

[2] = molecular target: CathB3 mature domain (Lys61-Asn340), Gal4 BD fusion (M. persicae)
[3] = molecular target: CathB9 mature domain (Glu61-Thr338), Gal4 BD fusion (M. persicae)
[4] = molecular target: CathB6 mature domain (Arg61-Asn338), Gal4 BD fusion (M. persicae)

Molecule	binding [1]	binding [2]	binding [3]	binding [4]
CathB6 mature domain, Gal4 AD fusion (M. persicae) (domain or fragment)	binds	–	–	–
EDS1 full length, Gal4 AD fusion (protein, UniProt Q9SU72 1-623) MAFEALTGINGDLITRSWSASKQAYLTERYHKEEAGAVVIFAFQPSFSEKDFFDPDNKSSFGEIKLNRVQFPCMRKIGKGDVATVNEAFLKNLEAIIDPRTSFQASVEMAVRSRKQIVFTGHSSGGATAILATVWYLEKYFIRNPNVYLEPRCVTFGAPLVGDSIFSHALGREKWSRFFVNFVSRFDIVPRIMLARKASVEETLPHVLAQLDPRKSSVQESEQRITEFYTRVMRDTSTVANQAVCELTGSAEAFLETLSSFLELSPYRPAGTFVFSTEKRLVAVNNSDAILQMLFYTSQASDEQEWSLIPFRSIRDHHSYEELVQSMGKKLFNHLDGENSIESTLNDLGVSTRGRQYVQAALEEEKKRVENQKKIIQVIEQERFLKKLAWIEDEYKPKCQAHKNGYYDSFKVSNEENDFKANVKRAELAGVFDEVLGLMKKCQLPDEFEGDIDWIKLATRYRRLVEPLDIANYHRHLKNEDTGPYMKRGRPTRYIYAQRGYEHYILKPNGMIAEDVFWNKVNGLNLGLQLEEIQETLKNSGSECGSCFWAEVEELKGKPYEEVEVRVKTLEGMLGEWITDGEVDDKEIFLEGSTFRKWWITLPKNHKSHSPLRDYMMDEITDT	–	binds	no binding	binds
PAD4 full length, Gal4 AD fusion (protein, UniProt Q9S745 1-541) MDDCRFETSELQASVMISTPLFTDSWSSCNTANCNGSIKIHDIAGITYVAIPAVSMIQLGNLVGLPVTGDVLFPGLSSDEPLPMVDAAILKLFLQLKIKEGLELELLGKKLVVITGHSTGGALAAFTALWLLSQSSPPSFRVFCITFGSPLLGNQSLSTSISRSRLAHNFCHVVSIHDLVPRSSNEQFWPFGTYLFCSDKGGVCLDNAGSVRLMFNILNTTATQNTEEHQRYGHYVFTLSHMFLKSRSFLGGSIPDNSYQAGVALAVEALGFSNDDTSGVLVKECIETATRIVRAPILRSAELANELASVLPARLEIQWYKDRCDASEEQLGYYDFFKRYSLKRDFKVNMSRIRLAKFWDTVIKMVETNELPFDFHLGKKWIYASQFYQLLAEPLDIANFYKNRDIKTGGHYLEGNRPKRYEVIDKWQKGVKVPEECVRSRYASTTQDTCFWAKLEQAKEWLDEARKESSDPQRRSLLREKIVPFESYANTLVTKKEVSLDVKAKNSSYSVWEANLKEFKCKMGYENEIEMVVDESDAMET	–	no binding	no binding	no binding
SAG101 full length, Gal4 AD fusion (protein, UniProt Q4F883 1-537) MESSSSLKGSALGKLVVTSGLLHSSWSKILEIHNPPYSNHDPGLQVSKKKKDSGLEFQIHREEKFTLVVFSAPPICRSSSSDSTLLHVKDKENPFPFLCSENNPSFSLHTPAFNLFTSASTSLTYLKSELLQTLKSEKPVIITGAALGGSVASLYTLWLLETIEPTLKRPLCITFGSPLIGDASLQQILENSVRNSCFLHVVSAQTRIKMDFFKPFGTFLICFDSGCVCIEDHVAVTELLNGVHDSGLVDYSQVLNRLDQSMLSLADSRLIPEDVIKGIEKRAEMKNLRFDMMFKKLNDMKISMAYIEWYKKKCKEVKIGYYDRFKTQLAFPSKEFDINIKNHHKSELNRFWKSVVEEVERRPQSDASILKRRFLFSGNNYRRMIEPLDIAEYYLEGRKEYRTTGRSHHYVMLEKWFGMESILIEKERCKKRDLSDLLTFDSCFWAEVEDSLIVINQLNTTVGMRDDVREVLTRKLVEFEGYVWEIITKREVSPEIFLEESSFMKWWKEYKKIKGFNSSYLTEFMNTRKYESYGKSQ	–	no binding	no binding	no binding

These are yes or no findings as the source states them, for the method shown. For some of these results: Binding calls can cover weak binding; strength is not graded here. Sequences can lack the tags named with a protein.
